Values from PubChem BioAssay AID1053208 (Peter MacCallum Cancer Centre, 2014).
Here is a random part of about 17,000 reagents tested. Over the whole deposit, 788 (4.7%) were called active. 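Calls rest on z-score classes alone; an extra cut-off of viability at most 70% of control was not applied to them.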 A number with no mark means an inactive call. Further read-outs or replicates are left out here.

- Assay: 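Genes whose silencing cuts survival of bone tumour cells only with doxorubicin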 (primary screen)
- System: mouse osteosarcoma cells, early-passage culture from an engineered mouse model of fibroblastic bone tumour
- Reagents: siRNA pool against mouse genes, 40 nM
- Time to read-out: about 120 h (48 h before drug, then 72 h with drug)
- Conditions: doxorubicin 100 nM for 72 h, roughly 30-40% inhibitory dose
- Measured: 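Viability read as ATP luminescence after 72 h of 100 nM doxorubicin or none, duplicate wells averaged, scaled to non-targeting siRNA, then expressed as robust z-scores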
- Reading the numbers: viability z-score with doxorubicin: higher = more viable cells under doxorubicin; viability z-score without drug: higher = more viable cells with knock-down alone
- Call rule: 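a pool counts as active when its viability z-score with doxorubicin is -2 or below and its z-score without drug lies between -2 and 2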

Pak6 (p21 (RAC1) activated kinase 6) — combined z-score class: no change with or without drug; viability z-score with doxorubicin: -0.9; viability z-score without drug: -1.35
Map3k21 (mitogen-activated protein kinase kinase kinase 21) — combined z-score class: no change with or without drug; viability z-score with doxorubicin: 0.22; viability z-score without drug: -0.17
Senp1 (SUMO1/sentrin specific peptidase 1) — combined z-score class: no change with or without drug; viability z-score with doxorubicin: -0.67; viability z-score without drug: 0.34
Rdh11 (retinol dehydrogenase 11) — combined z-score class: no change with or without drug; viability z-score with doxorubicin: 0; viability z-score without drug: 0.51
Neurog3 (neurogenin 3) — combined z-score class: no change with or without drug; viability z-score with doxorubicin: 1.35; viability z-score without drug: -0.17
Rnf8 (ring finger protein 8) — combined z-score class: no change with or without drug; viability z-score with doxorubicin: 1.57; viability z-score without drug: 0.84
Atp8a1 (ATPase phospholipid transporting 8A1) — combined z-score class: low cell count with doxorubicin only (active); viability z-score with doxorubicin: -2.02; viability z-score without drug: 1.01
Mnx1 (motor neuron and pancreas homeobox 1) — combined z-score class: no change with or without drug; viability z-score with doxorubicin: 0.9; viability z-score without drug: -0.84
Stmn1 (stathmin 1) — combined z-score class: no change with or without drug; viability z-score with doxorubicin: -1.12; viability z-score without drug: -0.51
Gm839 (predicted gene 839) — combined z-score class: no change with or without drug; viability z-score with doxorubicin: 1.24; viability z-score without drug: -0.17
Gjc2 (gap junction protein, gamma 2) — combined z-score class: no change with or without drug; viability z-score with doxorubicin: 0.79; viability z-score without drug: -0.51
Tbl2 (transducin (beta)-like 2) — combined z-score class: high cell count with and without drug; viability z-score with doxorubicin: 2.02; viability z-score without drug: 2.19
Tmed2 (transmembrane p24 trafficking protein 2) — combined z-score class: no change with or without drug; viability z-score with doxorubicin: 1.12; viability z-score without drug: -0.17
Tnf (tumor necrosis factor) — combined z-score class: no change with or without drug; viability z-score with doxorubicin: 0.22; viability z-score without drug: -0.17
Tigd3 (tigger transposable element derived 3) — combined z-score class: low cell count with doxorubicin only (active); viability z-score with doxorubicin: -2.47; viability z-score without drug: -1.52
Gnptg (N-acetylglucosamine-1-phosphotransferase, gamma subunit) — combined z-score class: no change with or without drug; viability z-score with doxorubicin: 0; viability z-score without drug: -0.51
Rnf138rt1 (ring finger protein 138, retrogene 1) — combined z-score class: no change with or without drug; viability z-score with doxorubicin: -0.9; viability z-score without drug: 0.84
Ing1 (inhibitor of growth family, member 1) — combined z-score class: no change with or without drug; viability z-score with doxorubicin: -1.57; viability z-score without drug: -0.84
Pex6 (peroxisomal biogenesis factor 6) — combined z-score class: no change with or without drug; viability z-score with doxorubicin: 1.12; viability z-score without drug: 1.18

Records above whose target name begins with M or m (2):
Map3k21 (mitogen-activated protein kinase kinase kinase 21) — combined z-score class: no change with or without drug; viability z-score with doxorubicin: 0.22; viability z-score without drug: -0.17
Mnx1 (motor neuron and pancreas homeobox 1) — combined z-score class: no change with or without drug; viability z-score with doxorubicin: 0.9; viability z-score without drug: -0.84
